Data as given in patent US20120041175A1.
These are yes or no findings as the source states them, for the method shown. In cells and extracts the contact can be indirect. Some results given as binding are weak or reduced against the parent protein; the word gives no strength. Where a sequence is shown, tags or fusion partners need not be part of it.

The chains behind the UniProt entries cited, without tags or fusion partners. Where a name states a change or a piece, a line headed by the entry shows the natural chain unless it says otherwise.
UniProt Q8NEB9: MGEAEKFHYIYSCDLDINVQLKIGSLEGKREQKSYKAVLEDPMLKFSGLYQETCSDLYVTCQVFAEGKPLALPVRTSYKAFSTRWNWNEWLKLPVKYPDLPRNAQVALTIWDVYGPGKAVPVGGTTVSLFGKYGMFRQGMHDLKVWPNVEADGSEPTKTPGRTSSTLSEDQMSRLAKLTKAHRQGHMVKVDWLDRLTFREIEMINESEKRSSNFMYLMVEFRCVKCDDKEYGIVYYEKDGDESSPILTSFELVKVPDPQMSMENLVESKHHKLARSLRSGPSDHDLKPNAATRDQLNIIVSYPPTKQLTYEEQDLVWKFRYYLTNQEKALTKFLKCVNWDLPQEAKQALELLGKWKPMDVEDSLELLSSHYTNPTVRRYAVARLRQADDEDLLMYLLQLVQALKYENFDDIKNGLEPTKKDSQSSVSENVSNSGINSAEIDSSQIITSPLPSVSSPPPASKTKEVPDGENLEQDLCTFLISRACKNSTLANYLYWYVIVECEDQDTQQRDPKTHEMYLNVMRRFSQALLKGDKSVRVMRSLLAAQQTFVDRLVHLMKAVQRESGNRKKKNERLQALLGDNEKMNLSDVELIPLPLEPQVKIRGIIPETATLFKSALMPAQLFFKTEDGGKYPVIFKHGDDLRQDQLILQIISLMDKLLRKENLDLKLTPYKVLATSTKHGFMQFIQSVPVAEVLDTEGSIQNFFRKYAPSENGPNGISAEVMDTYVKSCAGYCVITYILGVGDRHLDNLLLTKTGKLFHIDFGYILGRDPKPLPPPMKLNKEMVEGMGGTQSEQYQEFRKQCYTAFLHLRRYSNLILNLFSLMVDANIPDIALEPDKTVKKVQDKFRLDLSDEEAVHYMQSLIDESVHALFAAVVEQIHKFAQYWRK
UniProt O88597: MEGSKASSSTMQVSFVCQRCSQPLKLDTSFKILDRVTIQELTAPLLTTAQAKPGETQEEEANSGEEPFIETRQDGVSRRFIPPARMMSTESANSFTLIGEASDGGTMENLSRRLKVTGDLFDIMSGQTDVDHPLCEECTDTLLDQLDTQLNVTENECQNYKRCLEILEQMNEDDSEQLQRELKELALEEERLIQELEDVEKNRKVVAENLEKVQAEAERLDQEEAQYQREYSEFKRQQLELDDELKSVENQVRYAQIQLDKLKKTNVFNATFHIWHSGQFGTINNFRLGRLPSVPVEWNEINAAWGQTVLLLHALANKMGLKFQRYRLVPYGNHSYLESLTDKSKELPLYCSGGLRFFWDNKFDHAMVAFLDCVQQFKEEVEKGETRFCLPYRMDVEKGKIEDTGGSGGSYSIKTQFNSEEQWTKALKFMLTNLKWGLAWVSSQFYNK

Key:
[1] = target: Beclin 1-Vps34/PtdIns3K complex (endogenous, HEK 293T cells) (human) (UniProt Q8NEB9); experiment: co-IP with anti-GFP antibody from transfected HEK 293T cells
[2] = target: FLAG-Beclin 1-CE (FLAG-tagged Beclin 1 mutant containing coiled-coil and evolutionarily conserved domains) (mouse) (UniProt O88597); experiment: co-IP with anti-GFP antibody from co-transfected HEK 293T cells; anti-FLAG blot

binding [1]: binds
binding [2]: binds
B1: Rubicon-EGFP (full-length mouse Rubicon tagged with EGFP at the C-terminus) (protein, not shown: large carriers)
chain: MRPEGAGMDLGGGDGERLLEKSRREHWQLLGNLKTTVEGLVSANCPNVWSKYGGLERLCRDMQNILYHGLIHDQVCCRQADYWQFVKDIRWLSPHSALHVEKFISLHESDQSDTDSVSERAVAELWLQHSLQCHCLSAQLRPLLGDRQYIRKFYTETAFLLSDAHVTAMLQCLEAVEQNNPRLLAQIDASMFARKQESPLLVTKSQSLTALPGSTYTPPASYAQHSYFGSSSSLQSMPQSSHSSERRSTSFSLSGPSWQPQEDRECLSPAETQTTPAPLPSDSTLAQDSPLTAQEMSDSTLTSPLEASWVSSQNDSPSDVSEGPEYLAIGNPAPHGRTASCESHSSNGESSSSHLFSSSSSQKLESAASSLGDQEEGRQSQAGSVLRRSSFSEGQTAPVASGTKKSHIRSHSDTNIASRGAAEGGQYLCSGEGMFRRPSEGQSLISYLSEQDFGSCADLEKENAHFSISESLIAAIELMKCNMMSQCLEEEEVEEEDSDREIQELKQKIRLRRQQIRTKNLLPAYRETENGSFRVTSSSSQFSSRDSTQLSESGSAEDADDLEIQDADIRRSAVSNGKSSFSQNLSHCFLHSTSAEAVAMGLLKQFEGMQLPAASELEWLVPEHDAPQKLLPIPDSLPISPDDGQHADIYKLRIRVRGNLEWAPPRPQIIFNVHPAPTRKIAVAKQNYRCAGCGIRTDPDYIKRLRYCEYLGKYFCQCCHENAQMVVPSRILRKWDFSKYYVSNFSKDLLLKIWNDPLFNVQDINSALYRKVKLLNQVRLLRVQLYHMKNMFKTCRLAKELLDSFDVVPGHLTEDLHLYSLSDLTATKKGELGPRLAELTRAGAAHVERCMLCQAKGFICEFCQNEEDVIFPFELHKCRTCEECKACYHKTCFKSGRCPRCERLQARRELLAKQSLESYLSDYEEEPTEALALEATVLETT
